The values that follow come from the supplement of paper PMC6411743.

The chains behind the UniProt entries cited, without tags or fusion partners. Where a name states a change or a piece, a line headed by the entry shows the natural chain unless it says otherwise.
UniProt Q86XK3: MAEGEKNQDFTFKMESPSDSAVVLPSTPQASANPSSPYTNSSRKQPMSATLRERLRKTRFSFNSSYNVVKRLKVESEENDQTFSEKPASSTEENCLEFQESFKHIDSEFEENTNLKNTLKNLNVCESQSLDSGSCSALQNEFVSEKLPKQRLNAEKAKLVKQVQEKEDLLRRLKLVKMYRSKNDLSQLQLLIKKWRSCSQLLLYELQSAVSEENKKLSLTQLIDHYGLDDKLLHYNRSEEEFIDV
UniProt Q6PJ69: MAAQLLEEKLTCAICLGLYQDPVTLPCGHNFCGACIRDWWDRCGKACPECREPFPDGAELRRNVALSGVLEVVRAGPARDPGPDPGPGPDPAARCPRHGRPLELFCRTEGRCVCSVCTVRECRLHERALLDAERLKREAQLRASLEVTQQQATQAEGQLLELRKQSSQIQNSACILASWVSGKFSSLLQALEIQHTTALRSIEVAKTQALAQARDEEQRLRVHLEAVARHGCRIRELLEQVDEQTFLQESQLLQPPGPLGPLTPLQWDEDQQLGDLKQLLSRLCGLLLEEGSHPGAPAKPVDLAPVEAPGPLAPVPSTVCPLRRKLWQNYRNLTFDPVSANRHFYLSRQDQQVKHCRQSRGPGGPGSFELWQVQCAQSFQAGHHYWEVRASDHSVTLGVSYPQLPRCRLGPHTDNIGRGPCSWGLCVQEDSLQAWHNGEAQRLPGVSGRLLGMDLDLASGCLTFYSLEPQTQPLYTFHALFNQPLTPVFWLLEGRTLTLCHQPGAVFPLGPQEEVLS
UniProt Q86TB9: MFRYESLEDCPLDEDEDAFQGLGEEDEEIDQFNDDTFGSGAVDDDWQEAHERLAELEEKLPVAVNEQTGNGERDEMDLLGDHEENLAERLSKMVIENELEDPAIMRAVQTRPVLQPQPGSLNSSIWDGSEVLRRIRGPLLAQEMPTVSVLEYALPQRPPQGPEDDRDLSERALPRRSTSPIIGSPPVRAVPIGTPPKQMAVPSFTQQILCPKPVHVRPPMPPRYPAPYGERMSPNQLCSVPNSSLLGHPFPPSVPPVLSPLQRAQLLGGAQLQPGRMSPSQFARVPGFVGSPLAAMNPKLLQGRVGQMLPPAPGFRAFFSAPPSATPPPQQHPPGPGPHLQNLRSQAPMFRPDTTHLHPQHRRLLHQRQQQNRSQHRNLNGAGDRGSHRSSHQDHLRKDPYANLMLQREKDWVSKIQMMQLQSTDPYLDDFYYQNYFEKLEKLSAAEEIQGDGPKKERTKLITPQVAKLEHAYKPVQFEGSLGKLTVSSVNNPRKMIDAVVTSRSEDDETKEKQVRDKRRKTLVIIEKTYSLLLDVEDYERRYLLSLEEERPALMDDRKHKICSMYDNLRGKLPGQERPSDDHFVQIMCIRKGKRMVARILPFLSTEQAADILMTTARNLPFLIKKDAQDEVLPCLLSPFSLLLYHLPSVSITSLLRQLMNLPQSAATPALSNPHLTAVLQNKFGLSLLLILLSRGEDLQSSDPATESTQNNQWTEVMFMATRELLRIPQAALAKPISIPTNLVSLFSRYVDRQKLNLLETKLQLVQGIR
UniProt Q6VY07, whole entry, looked up: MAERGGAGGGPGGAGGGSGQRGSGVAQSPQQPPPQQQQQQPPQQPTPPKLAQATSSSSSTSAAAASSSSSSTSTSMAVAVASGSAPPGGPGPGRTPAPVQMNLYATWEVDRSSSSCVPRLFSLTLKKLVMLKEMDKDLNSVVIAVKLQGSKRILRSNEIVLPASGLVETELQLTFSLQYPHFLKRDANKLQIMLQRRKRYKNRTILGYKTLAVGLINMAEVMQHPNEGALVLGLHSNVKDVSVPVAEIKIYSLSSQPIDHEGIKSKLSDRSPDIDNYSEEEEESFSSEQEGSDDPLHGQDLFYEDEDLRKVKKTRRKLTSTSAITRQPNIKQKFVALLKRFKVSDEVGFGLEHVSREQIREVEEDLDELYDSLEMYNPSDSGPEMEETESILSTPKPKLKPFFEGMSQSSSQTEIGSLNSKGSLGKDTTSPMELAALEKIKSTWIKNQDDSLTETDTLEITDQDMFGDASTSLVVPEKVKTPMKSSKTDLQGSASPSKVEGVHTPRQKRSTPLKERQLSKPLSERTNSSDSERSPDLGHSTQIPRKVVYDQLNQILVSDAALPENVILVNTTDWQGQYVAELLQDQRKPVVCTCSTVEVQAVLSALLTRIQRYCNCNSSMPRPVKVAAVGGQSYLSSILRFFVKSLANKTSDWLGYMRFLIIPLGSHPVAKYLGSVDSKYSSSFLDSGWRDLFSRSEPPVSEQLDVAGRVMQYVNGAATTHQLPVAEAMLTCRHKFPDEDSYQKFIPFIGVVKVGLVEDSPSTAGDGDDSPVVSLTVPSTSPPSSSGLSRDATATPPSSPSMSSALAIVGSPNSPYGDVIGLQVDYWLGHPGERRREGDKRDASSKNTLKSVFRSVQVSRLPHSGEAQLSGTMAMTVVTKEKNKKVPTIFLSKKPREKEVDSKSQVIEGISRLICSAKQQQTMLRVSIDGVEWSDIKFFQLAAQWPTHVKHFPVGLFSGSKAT
UniProt Q8IVB4: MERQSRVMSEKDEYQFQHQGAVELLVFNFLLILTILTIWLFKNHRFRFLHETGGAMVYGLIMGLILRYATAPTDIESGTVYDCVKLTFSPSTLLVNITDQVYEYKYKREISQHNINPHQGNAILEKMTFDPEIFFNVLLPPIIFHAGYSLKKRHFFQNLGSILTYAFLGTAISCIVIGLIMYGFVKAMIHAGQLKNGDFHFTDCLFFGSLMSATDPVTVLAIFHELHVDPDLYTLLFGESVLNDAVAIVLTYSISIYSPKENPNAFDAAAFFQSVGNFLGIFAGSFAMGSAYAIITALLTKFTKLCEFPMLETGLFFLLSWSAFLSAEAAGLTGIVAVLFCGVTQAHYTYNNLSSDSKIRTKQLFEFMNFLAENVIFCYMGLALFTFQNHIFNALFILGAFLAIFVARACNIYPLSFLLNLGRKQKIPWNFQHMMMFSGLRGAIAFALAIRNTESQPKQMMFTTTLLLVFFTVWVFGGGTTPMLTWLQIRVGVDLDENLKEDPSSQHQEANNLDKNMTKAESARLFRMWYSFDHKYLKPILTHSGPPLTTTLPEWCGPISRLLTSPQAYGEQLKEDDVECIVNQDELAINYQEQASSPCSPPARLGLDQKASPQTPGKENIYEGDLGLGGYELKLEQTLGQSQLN
UniProt Q6ZT12: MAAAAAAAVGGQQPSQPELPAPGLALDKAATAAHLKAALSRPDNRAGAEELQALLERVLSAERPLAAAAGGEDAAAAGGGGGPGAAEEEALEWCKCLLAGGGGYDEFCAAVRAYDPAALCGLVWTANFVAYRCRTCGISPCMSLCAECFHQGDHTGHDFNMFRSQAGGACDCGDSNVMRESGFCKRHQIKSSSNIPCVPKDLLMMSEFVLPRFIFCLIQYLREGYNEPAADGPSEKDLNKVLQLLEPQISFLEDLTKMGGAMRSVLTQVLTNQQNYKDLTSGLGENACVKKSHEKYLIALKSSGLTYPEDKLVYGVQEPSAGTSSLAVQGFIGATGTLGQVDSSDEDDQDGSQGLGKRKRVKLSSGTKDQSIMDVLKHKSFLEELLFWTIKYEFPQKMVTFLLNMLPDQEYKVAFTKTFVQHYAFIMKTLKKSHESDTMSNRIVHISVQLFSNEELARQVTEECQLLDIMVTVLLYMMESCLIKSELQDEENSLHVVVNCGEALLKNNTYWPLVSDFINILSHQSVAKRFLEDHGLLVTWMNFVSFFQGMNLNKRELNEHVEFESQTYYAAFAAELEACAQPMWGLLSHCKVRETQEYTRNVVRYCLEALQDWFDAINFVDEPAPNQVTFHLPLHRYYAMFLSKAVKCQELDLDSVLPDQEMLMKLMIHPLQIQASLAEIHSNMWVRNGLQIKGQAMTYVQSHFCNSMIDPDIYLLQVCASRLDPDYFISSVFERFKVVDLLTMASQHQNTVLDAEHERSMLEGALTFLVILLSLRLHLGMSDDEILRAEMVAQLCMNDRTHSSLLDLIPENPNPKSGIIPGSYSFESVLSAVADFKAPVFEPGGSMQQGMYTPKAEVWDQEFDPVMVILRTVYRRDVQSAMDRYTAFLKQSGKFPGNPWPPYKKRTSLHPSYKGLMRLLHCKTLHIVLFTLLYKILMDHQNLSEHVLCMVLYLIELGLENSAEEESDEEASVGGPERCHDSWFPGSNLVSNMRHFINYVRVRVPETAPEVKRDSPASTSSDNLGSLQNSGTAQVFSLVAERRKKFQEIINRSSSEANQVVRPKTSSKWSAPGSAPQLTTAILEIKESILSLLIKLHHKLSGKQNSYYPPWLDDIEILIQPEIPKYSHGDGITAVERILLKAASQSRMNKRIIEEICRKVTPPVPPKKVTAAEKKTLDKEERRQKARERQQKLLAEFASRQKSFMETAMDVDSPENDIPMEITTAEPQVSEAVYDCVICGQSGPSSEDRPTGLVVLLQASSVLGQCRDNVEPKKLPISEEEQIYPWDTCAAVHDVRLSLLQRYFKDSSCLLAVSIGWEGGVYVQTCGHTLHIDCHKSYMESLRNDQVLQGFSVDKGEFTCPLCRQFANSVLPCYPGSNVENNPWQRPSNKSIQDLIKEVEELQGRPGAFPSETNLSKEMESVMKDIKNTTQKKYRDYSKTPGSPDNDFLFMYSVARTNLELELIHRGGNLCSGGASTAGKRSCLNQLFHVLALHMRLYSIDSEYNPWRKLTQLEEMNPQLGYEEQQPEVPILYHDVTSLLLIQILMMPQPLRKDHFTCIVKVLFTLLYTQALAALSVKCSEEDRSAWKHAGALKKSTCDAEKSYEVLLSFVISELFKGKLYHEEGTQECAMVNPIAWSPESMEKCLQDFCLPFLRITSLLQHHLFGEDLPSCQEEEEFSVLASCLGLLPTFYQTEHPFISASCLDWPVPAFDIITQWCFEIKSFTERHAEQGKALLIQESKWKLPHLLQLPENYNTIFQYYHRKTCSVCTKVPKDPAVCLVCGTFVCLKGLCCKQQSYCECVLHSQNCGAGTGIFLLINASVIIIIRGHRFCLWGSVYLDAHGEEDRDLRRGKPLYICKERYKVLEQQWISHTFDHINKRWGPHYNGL
UniProt Q6ZN55: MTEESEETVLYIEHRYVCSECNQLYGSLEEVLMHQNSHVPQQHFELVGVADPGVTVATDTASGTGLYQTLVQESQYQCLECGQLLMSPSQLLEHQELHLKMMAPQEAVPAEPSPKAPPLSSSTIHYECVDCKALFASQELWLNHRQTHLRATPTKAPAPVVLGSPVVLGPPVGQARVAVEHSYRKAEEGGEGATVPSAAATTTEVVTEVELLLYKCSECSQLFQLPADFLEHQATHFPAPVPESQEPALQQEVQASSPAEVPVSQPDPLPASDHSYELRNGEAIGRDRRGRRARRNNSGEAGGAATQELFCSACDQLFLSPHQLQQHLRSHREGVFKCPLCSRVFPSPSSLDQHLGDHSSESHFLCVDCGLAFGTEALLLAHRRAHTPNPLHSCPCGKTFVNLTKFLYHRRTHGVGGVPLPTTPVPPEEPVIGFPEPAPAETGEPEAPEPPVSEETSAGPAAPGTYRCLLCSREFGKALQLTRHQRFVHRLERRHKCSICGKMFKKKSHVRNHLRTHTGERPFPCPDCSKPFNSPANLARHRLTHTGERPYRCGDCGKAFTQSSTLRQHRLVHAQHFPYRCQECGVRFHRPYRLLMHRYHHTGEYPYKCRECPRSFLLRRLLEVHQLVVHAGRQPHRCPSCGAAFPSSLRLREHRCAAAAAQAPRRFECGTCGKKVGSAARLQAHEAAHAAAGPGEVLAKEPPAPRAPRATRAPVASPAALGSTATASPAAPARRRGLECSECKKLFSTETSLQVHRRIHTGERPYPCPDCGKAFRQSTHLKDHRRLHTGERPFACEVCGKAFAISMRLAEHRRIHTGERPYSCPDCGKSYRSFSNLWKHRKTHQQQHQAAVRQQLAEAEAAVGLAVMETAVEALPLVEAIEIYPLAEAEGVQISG
UniProt Q6UVJ0: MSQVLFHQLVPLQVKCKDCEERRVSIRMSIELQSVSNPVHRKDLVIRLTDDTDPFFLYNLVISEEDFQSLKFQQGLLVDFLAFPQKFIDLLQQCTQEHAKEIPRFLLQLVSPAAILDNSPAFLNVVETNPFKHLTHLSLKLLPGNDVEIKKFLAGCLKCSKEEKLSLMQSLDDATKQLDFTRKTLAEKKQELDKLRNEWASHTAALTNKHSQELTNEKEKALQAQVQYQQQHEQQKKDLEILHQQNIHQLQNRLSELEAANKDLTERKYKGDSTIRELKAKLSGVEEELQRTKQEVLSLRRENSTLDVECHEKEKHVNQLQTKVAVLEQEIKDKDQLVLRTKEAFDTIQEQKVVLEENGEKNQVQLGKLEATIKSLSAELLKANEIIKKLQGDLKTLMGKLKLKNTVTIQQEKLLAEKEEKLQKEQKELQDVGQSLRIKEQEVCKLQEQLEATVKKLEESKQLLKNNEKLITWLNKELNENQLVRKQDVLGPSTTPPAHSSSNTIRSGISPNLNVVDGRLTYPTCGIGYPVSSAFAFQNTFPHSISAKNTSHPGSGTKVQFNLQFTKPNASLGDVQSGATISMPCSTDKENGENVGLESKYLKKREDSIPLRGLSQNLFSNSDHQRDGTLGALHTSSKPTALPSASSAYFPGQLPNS

± gives the standard deviation of the averaged measurements. The entries are a selection whose mix differs from that of the whole data set. Most values lie at the level of the controls, where differences are scatter.

Compound in the first assay: Nc1ncnc2c1ncn2[C@@H]1O[C@H](COP(=O)(O)OP(=O)(O)OP(=O)(O)O)[C@@H](O)[C@H]1O [adenosine triphosphate]
Put plainly: NP40-soluble protein abundance relative to vehicle (solubility fold change) (ratio); higher = more soluble protein in presence of ATP. To be noted: concentration: 0.1mM. Put shortly:
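In three independent experiments, Jurkat crude lysate made by Dounce homogenisation was treated for 10 min at room temperature and then 3 min at 37 °C with eight concentrations ranging from 0.1 to 10 mM. It was then solubilised with 0.8% NP40 plus benzonase for 60 min at 4 °C and ultracentrifuged. The supernatant was TMT-labelled for LC-MS/MS, and each value is the fold change against the detergent-processed vehicle for the same replicate, using vsn-normalised intensities.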
Take UniProt Q86W92 and related entries: the NP40-soluble protein abundance came out at 1.04 ± 0.04.
Still for that read-out and setting: then UniProt Q86XK3 and related entries, with 1.15 ± 0.098; and TRIM65 (UniProt Q6PJ69), with 1.07 ± 0.061; and USP34 (UniProt Q70CQ2), with 1.05 ± 0.033.
With UniProt Q86TB9 and related entries, the NP40-soluble protein abundance was 0.976 ± 0.027.
Regarding UniProt Q6UN15 and related entries, the NP40-soluble protein abundance came to 0.899 ± 0.09.
With UniProt Q86X76-2, the NP40-soluble protein abundance amounted to 1.05 ± 0.06.
On the same count and under the same terms, under LPCAT2 (UniProt Q7L5N7) stands 0.967 ± 0.11; under UniProt Q7Z7L7, 1.09 ± 0.028; under UniProt Q7Z2Z2, 1.04 ± 0.055.
For the target UniProt Q6UXB8 and related entries, the NP40-soluble protein abundance was determined as 0.996 ± 0.026.
The same measure, in the same setting: then PACS1 (UniProt Q6VY07), with 0.999 ± 0.029; and UniProt Q6PIF6, with 1.04 ± 0.067.
As to UniProt Q71SY5 and related entries, the NP40-soluble protein abundance amounted to 0.904 ± 0.08.
On the same count and under the same terms, then UniProt Q7Z3K3 and related entries, with 1 ± 0.029.
Same read-out and setting: under UniProt Q6W2J9 and related entries stands 0.962 ± 0.15.
As to NCAPG2 (UniProt Q86XI2), the NP40-soluble protein abundance worked out at 1.04 ± 0.051.
Same read-out and setting: under UniProt Q6ZN18 and related entries stands 1.3 ± 0.16; under RABEPK (UniProt Q7Z6M1), 1.03 ± 0.045; under UniProt Q76FK4 and related entries, 1.01 ± 0.023.
As to UniProt Q8IVB4, the NP40-soluble protein abundance came to 0.932 ± 0.21.
Still for that read-out and setting: under UniProt Q7Z392 stands 1.02 ± 0.13; under UniProt Q7L3B6 and related entries, 0.965 ± 0.068.
Same read-out and setting: under UniProt Q6ZT12 and related entries stands 1.02 ± 0.044.
The same measure, in the same setting: under UniProt Q6ZMI0 stands 0.992 ± 0.019.
For the target UniProt Q7Z591 and related entries, the NP40-soluble protein abundance is 1.03 ± 0.072.
Still for that read-out and setting: then UniProt Q6VMQ6 and related entries, with 0.976 ± 0.023.
On the same count and under the same terms, under PARG (UniProt Q86W56) stands 1.02 ± 0.049.
Still for that read-out and setting: under UniProt Q6R327 and related entries stands 1.06 ± 0.017; under UniProt Q6ZN55 and related entries, 1.04 ± 0.11; under SASS6 (UniProt Q6UVJ0), 0.972 ± 0.076.
For the target UniProt Q86TN4 and related entries, the NP40-soluble protein abundance stood at 1.01 ± 0.037.
Still for that read-out and setting: under UniProt Q7L2H7 stands 0.932 ± 0.043.
The same measure, in the same setting: under UniProt Q6ZNW5 stands 0.96 ± 0.048.
The same measure, in the same setting: then UniProt Q7Z7A3, with 0.9703 ± 0.0062; and UniProt Q86WA6 and related entries, with 1.01 ± 0.034.
Turning to APBB1IP (UniProt Q7Z5R6), the NP40-soluble protein abundance was found to be 1.07 ± 0.092.

The same assay, now with this note: concentration: 0.5mM.
Take UniProt Q86W92 and related entries: the NP40-soluble protein abundance was 1.07 ± 0.026.
As for UniProt Q86XK3 and related entries, the NP40-soluble protein abundance was found to be 1.09 ± 0.11.
For TRIM65 (UniProt Q6PJ69), the NP40-soluble protein abundance worked out at 1 ± 0.059.
Take USP34 (UniProt Q70CQ2): the NP40-soluble protein abundance was 1.03 ± 0.058.
Same read-out and setting: then UniProt Q86TB9 and related entries, with 0.988 ± 0.03.
As to UniProt Q6UN15 and related entries, the NP40-soluble protein abundance worked out at 1.09 ± 0.13.
On the same count and under the same terms, then UniProt Q86X76-2, with 1.02 ± 0.074; and LPCAT2 (UniProt Q7L5N7), with 0.957 ± 0.2; and UniProt Q7Z7L7, with 1.13 ± 0.026.
On the same count and under the same terms, under UniProt Q7Z2Z2 stands 1.05 ± 0.049.
On the same count and under the same terms, under UniProt Q6UXB8 and related entries stands 0.983 ± 0.024.
Consider PACS1 (UniProt Q6VY07), for which the NP40-soluble protein abundance was determined as 0.994 ± 0.02.
UniProt Q6PIF6: the NP40-soluble protein abundance amounted to 1.03 ± 0.011.
On the same count and under the same terms, under UniProt Q71SY5 and related entries stands 0.969 ± 0.12; under UniProt Q7Z3K3 and related entries, 1.02 ± 0.057.
UniProt Q6W2J9 and related entries: the NP40-soluble protein abundance was 1.01 ± 0.055.
The same measure, in the same setting: under NCAPG2 (UniProt Q86XI2) stands 1.02 ± 0.013; under UniProt Q6ZN18 and related entries, 1.14 ± 0.17.
On the same count and under the same terms, under RABEPK (UniProt Q7Z6M1) stands 1.02 ± 0.046; under UniProt Q76FK4 and related entries, 1.05 ± 0.042.
The same measure, in the same setting: then UniProt Q8IVB4, with 0.832 ± 0.021; and UniProt Q7Z392, with 1.05 ± 0.073.
With UniProt Q7L3B6 and related entries, the NP40-soluble protein abundance was 0.957 ± 0.049.
Still for that read-out and setting: then UniProt Q6ZT12 and related entries, with 1.03 ± 0.042; and UniProt Q6ZMI0, with 1 ± 0.065.
Same read-out and setting: then UniProt Q7Z591 and related entries, with 1.008 ± 0.01.
Still for that read-out and setting: under UniProt Q6VMQ6 and related entries stands 0.952 ± 0.048; under PARG (UniProt Q86W56), 1.02 ± 0.048.
For the target UniProt Q6R327 and related entries, the NP40-soluble protein abundance was determined as 1.19 ± 0.078.
The same measure, in the same setting: under UniProt Q6ZN55 and related entries stands 1.03 ± 0.22.
On the same count and under the same terms, then SASS6 (UniProt Q6UVJ0), with 0.962 ± 0.022.
The same measure, in the same setting: then UniProt Q86TN4 and related entries, with 0.997 ± 0.029; and UniProt Q7L2H7, with 0.889 ± 0.12.
UniProt Q6ZNW5: the NP40-soluble protein abundance was 1.02 ± 0.074.
The same measure, in the same setting: then UniProt Q7Z7A3, with 1.02 ± 0.16.
Still for that read-out and setting: under UniProt Q86WA6 and related entries stands 0.987 ± 0.06; under APBB1IP (UniProt Q7Z5R6), 0.995 ± 0.038.
